Measurements from the supplement of paper PMC10849652.
The list shows a part of the results.

Protein sequences, listed by entry. Tags and fused reporters are not part of them. Lines headed by an entry give the natural chain unless they say otherwise; changes in a name come on top.
UniProt P27144: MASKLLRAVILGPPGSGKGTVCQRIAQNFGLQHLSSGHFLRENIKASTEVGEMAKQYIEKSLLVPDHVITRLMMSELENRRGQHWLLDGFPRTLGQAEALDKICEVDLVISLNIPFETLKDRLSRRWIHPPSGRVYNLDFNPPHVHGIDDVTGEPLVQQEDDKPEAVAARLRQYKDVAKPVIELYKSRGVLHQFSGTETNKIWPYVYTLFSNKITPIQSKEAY
UniProt Q9UNA0: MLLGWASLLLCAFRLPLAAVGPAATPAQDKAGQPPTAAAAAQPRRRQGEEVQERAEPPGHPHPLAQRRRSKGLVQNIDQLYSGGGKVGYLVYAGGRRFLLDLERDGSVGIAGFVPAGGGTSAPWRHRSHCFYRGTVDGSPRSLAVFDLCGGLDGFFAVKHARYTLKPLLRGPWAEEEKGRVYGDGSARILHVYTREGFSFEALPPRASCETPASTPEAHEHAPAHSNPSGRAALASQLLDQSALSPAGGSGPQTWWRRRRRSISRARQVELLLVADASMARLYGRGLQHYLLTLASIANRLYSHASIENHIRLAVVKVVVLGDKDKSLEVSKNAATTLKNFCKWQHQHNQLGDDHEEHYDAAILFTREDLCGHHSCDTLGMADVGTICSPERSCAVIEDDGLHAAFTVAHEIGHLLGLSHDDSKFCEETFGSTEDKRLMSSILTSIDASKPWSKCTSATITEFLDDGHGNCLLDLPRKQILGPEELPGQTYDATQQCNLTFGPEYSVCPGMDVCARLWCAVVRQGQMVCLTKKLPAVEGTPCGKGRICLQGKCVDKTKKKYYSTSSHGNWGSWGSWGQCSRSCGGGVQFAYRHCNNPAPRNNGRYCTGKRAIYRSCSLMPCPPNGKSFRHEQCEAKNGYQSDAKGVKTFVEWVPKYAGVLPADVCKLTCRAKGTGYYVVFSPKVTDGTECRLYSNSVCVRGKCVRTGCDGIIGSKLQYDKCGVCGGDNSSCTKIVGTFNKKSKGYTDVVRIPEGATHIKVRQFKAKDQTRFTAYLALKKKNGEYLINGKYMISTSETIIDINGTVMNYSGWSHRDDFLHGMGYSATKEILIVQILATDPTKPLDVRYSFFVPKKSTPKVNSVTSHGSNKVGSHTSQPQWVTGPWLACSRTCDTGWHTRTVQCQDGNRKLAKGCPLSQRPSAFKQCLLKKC
UniProt Q9NZ32, whole entry, looked up: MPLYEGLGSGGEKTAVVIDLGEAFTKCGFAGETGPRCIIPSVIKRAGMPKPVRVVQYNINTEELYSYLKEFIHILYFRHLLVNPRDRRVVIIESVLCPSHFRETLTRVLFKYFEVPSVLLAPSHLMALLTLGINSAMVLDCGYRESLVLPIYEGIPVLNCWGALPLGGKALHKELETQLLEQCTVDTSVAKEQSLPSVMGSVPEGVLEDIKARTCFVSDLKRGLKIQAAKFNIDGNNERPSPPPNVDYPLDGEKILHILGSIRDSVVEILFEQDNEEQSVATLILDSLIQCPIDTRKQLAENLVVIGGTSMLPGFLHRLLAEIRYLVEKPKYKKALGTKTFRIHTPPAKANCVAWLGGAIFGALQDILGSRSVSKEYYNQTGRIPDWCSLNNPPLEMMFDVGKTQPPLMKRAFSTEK
UniProt P11117: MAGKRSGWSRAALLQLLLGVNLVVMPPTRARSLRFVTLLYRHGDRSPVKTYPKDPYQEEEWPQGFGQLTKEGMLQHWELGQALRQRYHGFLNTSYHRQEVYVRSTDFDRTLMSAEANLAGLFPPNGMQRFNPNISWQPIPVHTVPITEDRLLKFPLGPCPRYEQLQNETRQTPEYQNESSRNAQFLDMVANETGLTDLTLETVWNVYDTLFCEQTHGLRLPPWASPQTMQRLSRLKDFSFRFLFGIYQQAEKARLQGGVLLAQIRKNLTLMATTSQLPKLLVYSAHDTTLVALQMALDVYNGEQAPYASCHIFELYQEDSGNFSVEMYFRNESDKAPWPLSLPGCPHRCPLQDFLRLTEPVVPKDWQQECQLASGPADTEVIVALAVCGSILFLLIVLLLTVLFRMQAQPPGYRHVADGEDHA
UniProt Q86V24: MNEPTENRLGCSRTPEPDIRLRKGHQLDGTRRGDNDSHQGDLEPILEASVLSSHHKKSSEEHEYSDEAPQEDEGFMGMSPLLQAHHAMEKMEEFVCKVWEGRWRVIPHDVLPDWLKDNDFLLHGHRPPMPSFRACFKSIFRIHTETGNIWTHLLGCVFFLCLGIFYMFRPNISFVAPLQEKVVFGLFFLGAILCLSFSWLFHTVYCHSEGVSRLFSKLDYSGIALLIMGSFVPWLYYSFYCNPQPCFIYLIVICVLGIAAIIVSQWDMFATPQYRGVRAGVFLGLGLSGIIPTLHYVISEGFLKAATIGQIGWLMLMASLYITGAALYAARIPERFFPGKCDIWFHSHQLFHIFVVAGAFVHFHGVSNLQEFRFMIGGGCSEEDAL
UniProt P07311: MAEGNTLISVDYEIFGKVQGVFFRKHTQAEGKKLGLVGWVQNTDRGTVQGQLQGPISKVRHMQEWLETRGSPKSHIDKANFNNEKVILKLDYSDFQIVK
UniProt Q13155: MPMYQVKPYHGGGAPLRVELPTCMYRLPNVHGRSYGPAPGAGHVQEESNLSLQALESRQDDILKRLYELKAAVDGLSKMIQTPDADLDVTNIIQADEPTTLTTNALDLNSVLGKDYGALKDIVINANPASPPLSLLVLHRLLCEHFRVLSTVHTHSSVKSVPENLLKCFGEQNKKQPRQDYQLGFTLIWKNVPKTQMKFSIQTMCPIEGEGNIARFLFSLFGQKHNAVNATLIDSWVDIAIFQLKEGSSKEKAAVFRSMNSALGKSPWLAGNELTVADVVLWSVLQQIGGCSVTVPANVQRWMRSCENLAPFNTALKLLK
UniProt P55265: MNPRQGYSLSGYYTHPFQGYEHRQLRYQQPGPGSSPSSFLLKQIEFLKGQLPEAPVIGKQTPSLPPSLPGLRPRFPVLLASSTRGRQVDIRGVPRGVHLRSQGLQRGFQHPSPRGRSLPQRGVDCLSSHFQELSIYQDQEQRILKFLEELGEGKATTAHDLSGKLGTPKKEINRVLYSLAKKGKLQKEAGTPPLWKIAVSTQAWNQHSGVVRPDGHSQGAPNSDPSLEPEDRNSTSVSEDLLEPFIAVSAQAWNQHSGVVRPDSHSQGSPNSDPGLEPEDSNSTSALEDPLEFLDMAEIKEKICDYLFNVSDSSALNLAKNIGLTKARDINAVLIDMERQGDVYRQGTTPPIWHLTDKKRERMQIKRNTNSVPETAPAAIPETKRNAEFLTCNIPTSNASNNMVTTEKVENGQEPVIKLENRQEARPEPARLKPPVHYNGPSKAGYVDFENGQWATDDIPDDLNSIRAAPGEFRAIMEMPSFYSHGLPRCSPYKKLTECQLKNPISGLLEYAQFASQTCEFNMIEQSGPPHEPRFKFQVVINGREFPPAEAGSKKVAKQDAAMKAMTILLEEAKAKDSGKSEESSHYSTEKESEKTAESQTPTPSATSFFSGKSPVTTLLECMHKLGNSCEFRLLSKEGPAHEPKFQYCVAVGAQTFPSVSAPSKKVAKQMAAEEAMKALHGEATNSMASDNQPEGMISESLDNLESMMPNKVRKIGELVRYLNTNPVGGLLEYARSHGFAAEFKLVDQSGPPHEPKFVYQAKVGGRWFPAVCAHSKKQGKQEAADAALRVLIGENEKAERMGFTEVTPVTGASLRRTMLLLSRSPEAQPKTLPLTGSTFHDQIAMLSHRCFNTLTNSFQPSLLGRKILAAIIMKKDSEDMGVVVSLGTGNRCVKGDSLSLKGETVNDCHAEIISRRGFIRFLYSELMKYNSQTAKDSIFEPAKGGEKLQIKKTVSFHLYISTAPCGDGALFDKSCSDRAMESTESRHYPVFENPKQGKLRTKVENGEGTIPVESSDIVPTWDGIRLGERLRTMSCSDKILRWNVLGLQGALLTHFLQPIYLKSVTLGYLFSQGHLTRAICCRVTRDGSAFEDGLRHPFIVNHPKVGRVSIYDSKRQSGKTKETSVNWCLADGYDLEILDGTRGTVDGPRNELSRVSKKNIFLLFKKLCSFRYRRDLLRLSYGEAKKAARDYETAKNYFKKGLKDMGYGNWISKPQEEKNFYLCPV
UniProt Q9BV57: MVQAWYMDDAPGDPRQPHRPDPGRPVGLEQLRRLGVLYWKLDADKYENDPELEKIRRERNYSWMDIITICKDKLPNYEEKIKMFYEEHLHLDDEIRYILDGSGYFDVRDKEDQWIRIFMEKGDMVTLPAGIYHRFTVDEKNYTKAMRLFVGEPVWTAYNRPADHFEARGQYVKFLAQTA
UniProt Q4G176: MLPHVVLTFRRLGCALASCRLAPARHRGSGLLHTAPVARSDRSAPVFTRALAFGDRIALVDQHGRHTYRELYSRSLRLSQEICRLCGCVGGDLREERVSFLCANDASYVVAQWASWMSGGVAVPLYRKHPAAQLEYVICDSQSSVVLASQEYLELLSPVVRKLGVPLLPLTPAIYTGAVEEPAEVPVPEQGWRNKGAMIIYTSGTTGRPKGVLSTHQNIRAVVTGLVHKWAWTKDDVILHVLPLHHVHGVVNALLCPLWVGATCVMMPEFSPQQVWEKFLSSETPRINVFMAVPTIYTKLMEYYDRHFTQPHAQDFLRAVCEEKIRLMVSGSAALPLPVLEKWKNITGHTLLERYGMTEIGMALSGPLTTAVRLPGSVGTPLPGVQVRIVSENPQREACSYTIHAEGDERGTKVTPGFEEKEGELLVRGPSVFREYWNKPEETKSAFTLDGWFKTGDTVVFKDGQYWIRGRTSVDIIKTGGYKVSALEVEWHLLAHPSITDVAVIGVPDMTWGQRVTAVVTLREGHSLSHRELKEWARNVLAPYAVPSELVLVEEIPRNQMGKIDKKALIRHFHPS
UniProt O00154: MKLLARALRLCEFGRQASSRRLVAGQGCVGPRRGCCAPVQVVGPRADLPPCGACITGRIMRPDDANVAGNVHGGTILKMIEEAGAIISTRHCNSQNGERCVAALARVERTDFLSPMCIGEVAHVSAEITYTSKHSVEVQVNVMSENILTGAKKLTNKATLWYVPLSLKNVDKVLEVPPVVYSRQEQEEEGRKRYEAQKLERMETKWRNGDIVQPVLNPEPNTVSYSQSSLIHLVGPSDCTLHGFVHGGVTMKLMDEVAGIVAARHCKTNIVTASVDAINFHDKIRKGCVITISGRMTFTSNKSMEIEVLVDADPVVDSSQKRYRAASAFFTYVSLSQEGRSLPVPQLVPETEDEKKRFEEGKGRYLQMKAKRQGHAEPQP
UniProt O95831, whole entry, looked up: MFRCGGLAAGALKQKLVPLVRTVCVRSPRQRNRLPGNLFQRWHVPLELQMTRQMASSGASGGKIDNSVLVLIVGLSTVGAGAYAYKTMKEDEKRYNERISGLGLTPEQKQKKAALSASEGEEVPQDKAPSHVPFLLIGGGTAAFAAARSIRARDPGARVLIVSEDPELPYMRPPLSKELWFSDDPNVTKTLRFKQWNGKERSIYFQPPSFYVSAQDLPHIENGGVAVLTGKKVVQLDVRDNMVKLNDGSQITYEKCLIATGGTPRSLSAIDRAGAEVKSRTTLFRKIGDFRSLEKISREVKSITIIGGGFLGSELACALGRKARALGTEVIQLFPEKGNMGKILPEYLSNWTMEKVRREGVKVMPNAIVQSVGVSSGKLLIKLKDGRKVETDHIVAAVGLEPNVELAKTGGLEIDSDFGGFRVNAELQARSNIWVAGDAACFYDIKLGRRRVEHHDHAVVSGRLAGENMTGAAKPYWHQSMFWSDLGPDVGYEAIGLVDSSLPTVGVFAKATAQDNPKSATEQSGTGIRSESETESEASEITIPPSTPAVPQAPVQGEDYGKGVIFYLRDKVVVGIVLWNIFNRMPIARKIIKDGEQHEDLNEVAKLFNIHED
UniProt Q9UHX3: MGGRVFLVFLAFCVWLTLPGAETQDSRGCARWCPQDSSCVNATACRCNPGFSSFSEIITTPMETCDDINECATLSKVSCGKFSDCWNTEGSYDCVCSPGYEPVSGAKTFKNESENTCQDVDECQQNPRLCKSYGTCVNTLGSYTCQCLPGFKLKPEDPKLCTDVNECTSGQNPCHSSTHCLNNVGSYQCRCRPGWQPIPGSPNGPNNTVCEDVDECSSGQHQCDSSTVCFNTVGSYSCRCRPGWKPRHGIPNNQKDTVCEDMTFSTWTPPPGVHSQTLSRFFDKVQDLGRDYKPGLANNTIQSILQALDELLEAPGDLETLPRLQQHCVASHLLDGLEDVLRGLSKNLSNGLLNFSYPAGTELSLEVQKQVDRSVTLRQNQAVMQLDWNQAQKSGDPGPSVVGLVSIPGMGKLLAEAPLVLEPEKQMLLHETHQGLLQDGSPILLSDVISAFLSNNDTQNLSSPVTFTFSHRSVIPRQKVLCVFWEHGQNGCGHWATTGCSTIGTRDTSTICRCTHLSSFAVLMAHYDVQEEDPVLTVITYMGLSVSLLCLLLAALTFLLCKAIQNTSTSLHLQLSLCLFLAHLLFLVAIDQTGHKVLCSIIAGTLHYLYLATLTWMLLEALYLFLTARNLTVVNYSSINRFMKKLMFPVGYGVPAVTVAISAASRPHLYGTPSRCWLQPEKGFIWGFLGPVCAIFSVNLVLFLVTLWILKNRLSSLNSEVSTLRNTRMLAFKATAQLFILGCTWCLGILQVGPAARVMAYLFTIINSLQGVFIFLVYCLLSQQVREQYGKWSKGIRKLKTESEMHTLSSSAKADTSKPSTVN

How the values were obtained:
Assay in all cases: log2 fold change, soluble protein after heating vs DMSO (PISA); higher = thermal stabilisation; K562 lysate, 10 uM; active = over 0.2 and 3.5 SD of the protein, either way, in both replicates (recomputed)
[1] = compound: C1=CC=C(C=C1)[C@H](COC2=CC3=C(C=C2)NC(=O)N3)NC(=O)C4=CC=CN(C4=O)CC5=CC(=C(C=C5)F)F
Outline: (§1)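 Pellets of K562 cells were dounce-homogenised in PBS pH 7.4 with 1 mM MgCl2, and the crude extract was held at 1 mg/mL protein for a 30 min treatment with 10 μM compound. Aliquots were heated for 3 min over 48°C-58°C and pooled before NP-40 was added to 0.5% at 4°C. The supernatant from 21,000xg for 90 min was quantified by TMTpro 16plex LC-MS/MS with channel sums equalised. Values are reported from duplicates as log-two fold change in thermal stability relative to solvent controls.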

[2] = compound: CC1=C(SC2=C1C(=N[C@H](C3=NN=C(N32)C)CC(=O)N)C4=CC=C(C=C4)Cl)C
Outline: as §1

[3] = compound: CC1=C2C(=CC=C1)N=C(N(C2=O)C3=CC=CC=C3C)CN4C=NC5=C(N=CN=C54)N
Outline: as §1

[4] = compound: Cc1sc2c(c1C)C(c1ccc(Cl)cc1)=N[C@@H](CC(=O)OC(C)(C)C)c1nnc(C)n1-2
Outline: as §1

[5] = compound: c1ccc([C@@H]2C[C@H]2NC2CCNCC2)cc1
Outline: as §1

Measured: log2 fold change

AK5 (UniProt Q9Y6K8)
inactive: [1] -0.021 | [2] 0.022 | [3] -0.047 | [4] -0.005

AK4 (UniProt P27144)
inactive: [1] 0.025 | [2] -0.038 | [3] 0.059 | [4] 0.024 | [5] 0.026

AGRN (UniProt O00468)
inactive: [1] 0.04 | [2] -0.127 | [3] -0.175 | [4] 0.1 | [5] -0.048

AGO1 (UniProt Q9UL18)
inactive: [1] -0.01 | [2] 0.017 | [3] 0.048 | [4] -0.013 | [5] 0.03

ADAT1 (UniProt Q9BUB4)
inactive: [1] 0.108 | [2] -0.019

AK1 (UniProt P00568)
inactive: [1] -0.032 | [2] 0.024 | [3] -0.009 | [4] 0.012 | [5] 0.2

ADK, A0A5F9ZH76
inactive: [1] -0.136 | [2] 0.197

ADAMTS5 (UniProt Q9UNA0)
inactive: [1] 0.032 | [2] 0.115 | [3] 0 | [4] -0.136
active: [5] -0.481

ACTR10 (UniProt Q9NZ32)
inactive: [1] 0.038 | [2] -0.027 | [3] 0.064 | [4] 0.022 | [5] -0.055

AGAP3 isoform 4 (UniProt Q96P47)
inactive: [1] -0.04 | [2] 0.02 | [3] 0.024 | [4] -0.013 | [5] 0.056

ACP1 isoform 2 (UniProt P24666)
inactive: [1] 0.022 | [2] 0.013 | [3] 0.066 | [4] 0.006 | [5] -0.005

ACP2 (UniProt P11117)
inactive: [1] -0.017 | [2] 0.034 | [3] 0.009 | [4] 0.021 | [5] -0.023

AGTRAP (UniProt Q6RW13)
inactive: [1] -0.157 | [2] -0.109 | [3] -0.023 | [4] -0.168 | [5] -0.094

AKAP8L (UniProt Q9ULX6)
inactive: [1] 0.011 | [2] -0.005 | [3] -0.001 | [4] 0.018 | [5] -0.02

ADNP (UniProt Q9H2P0)
inactive: [1] 0.049 | [2] -0.001 | [3] -0.008 | [4] 0.02 | [5] -0.051

AGAP1 (UniProt Q9UPQ3)
inactive: [1] 0.022 | [2] -0.002 | [3] 0.134 | [4] -0.097 | [5] 0.042

ADIPOR2 (UniProt Q86V24)
inactive: [1] -0.1 | [2] 0.11 | [3] -0.103 | [4] 0.048

ADSL (UniProt P30566)
inactive: [1] 0.039 | [2] -0.006 | [3] 0.017 | [4] 0.003 | [5] 0.06

AKAP8 (UniProt O43823)
inactive: [1] -0.02 | [2] 0.073 | [3] -0.016 | [4] -0.009 | [5] -0.014

ACYP1 (UniProt P07311)
inactive: [1] 0.019 | [2] -0.026 | [3] -0.036 | [4] 0.022 | [5] 0.052

AIMP2 isoform 2 (UniProt Q13155)
inactive: [1] 0.182 | [2] 0.029

ACSS3 (UniProt Q9H6R3)
inactive: [1] 0.166 | [2] 0.069

AIMP2 (UniProt Q13155)
inactive: [1] -0.028 | [2] 0.021 | [3] 0.013 | [4] 0.036 | [5] 0.041

ADAR isoform 4 (UniProt P55265)
inactive: [1] -0.188 | [2] 0.116 | [3] 0.035 | [4] 0.005 | [5] 0.032

AHDC1 (UniProt Q5TGY3)
inactive: [1] -0.71 | [2] -0.278

ADI1 (UniProt Q9BV57)
inactive: [1] -0.008 | [2] 0.064 | [3] 0.028 | [4] -0.047 | [5] -0.034

ACTB, A0A2R8Y793
inactive: [1] -0.014 | [2] 0.022 | [3] -0.003 | [4] 0.025 | [5] 0.013

ADK (UniProt P55263)
inactive: [1] 0.059 | [2] -0.035 | [3] 0.051 | [4] -0.036 | [5] -0.133

Taken from the entries so far (18 entries):
AGAP3 isoform 4 (UniProt Q96P47)
inactive: [1] -0.04 | [2] 0.02 | [3] 0.024 | [4] -0.013 | [5] 0.056

ACP1 isoform 2 (UniProt P24666)
inactive: [1] 0.022 | [2] 0.013 | [3] 0.066 | [4] 0.006 | [5] -0.005

ACP2 (UniProt P11117)
inactive: [1] -0.017 | [2] 0.034 | [3] 0.009 | [4] 0.021 | [5] -0.023

AGTRAP (UniProt Q6RW13)
inactive: [1] -0.157 | [2] -0.109 | [3] -0.023 | [4] -0.168 | [5] -0.094

AKAP8L (UniProt Q9ULX6)
inactive: [1] 0.011 | [2] -0.005 | [3] -0.001 | [4] 0.018 | [5] -0.02

ADNP (UniProt Q9H2P0)
inactive: [1] 0.049 | [2] -0.001 | [3] -0.008 | [4] 0.02 | [5] -0.051

AGAP1 (UniProt Q9UPQ3)
inactive: [1] 0.022 | [2] -0.002 | [3] 0.134 | [4] -0.097 | [5] 0.042

ADIPOR2 (UniProt Q86V24)
inactive: [1] -0.1 | [2] 0.11 | [3] -0.103 | [4] 0.048

ADSL (UniProt P30566)
inactive: [1] 0.039 | [2] -0.006 | [3] 0.017 | [4] 0.003 | [5] 0.06

AKAP8 (UniProt O43823)
inactive: [1] -0.02 | [2] 0.073 | [3] -0.016 | [4] -0.009 | [5] -0.014

ACYP1 (UniProt P07311)
inactive: [1] 0.019 | [2] -0.026 | [3] -0.036 | [4] 0.022 | [5] 0.052

AIMP2 isoform 2 (UniProt Q13155)
inactive: [1] 0.182 | [2] 0.029

ACSS3 (UniProt Q9H6R3)
inactive: [1] 0.166 | [2] 0.069

AIMP2 (UniProt Q13155)
inactive: [1] -0.028 | [2] 0.021 | [3] 0.013 | [4] 0.036 | [5] 0.041

ADAR isoform 4 (UniProt P55265)
inactive: [1] -0.188 | [2] 0.116 | [3] 0.035 | [4] 0.005 | [5] 0.032

AHDC1 (UniProt Q5TGY3)
inactive: [1] -0.71 | [2] -0.278

ADI1 (UniProt Q9BV57)
inactive: [1] -0.008 | [2] 0.064 | [3] 0.028 | [4] -0.047 | [5] -0.034

ACTB, A0A2R8Y793
inactive: [1] -0.014 | [2] 0.022 | [3] -0.003 | [4] 0.025 | [5] 0.013

More records follow.

ACTB (UniProt C9JUM1)
inactive: [1] -0.127 | [2] 0.041

AFP (UniProt P02771)
inactive: [1] 0.022 | [2] -0.046 | [3] 0.014 | [4] -0.008 | [5] 0.033

ADSS2 (UniProt P30520)
inactive: [1] 0.01 | [2] 0.009 | [3] 0 | [4] -0.008 | [5] -0.019

AKAP1 (UniProt Q92667)
inactive: [1] -0.004 | [2] 0.044 | [3] 0.009 | [4] -0.03 | [5] -0.001

ACSF3 (UniProt Q4G176)
inactive: [1] 0.119 | [2] 0.012 | [3] -0.024 | [4] -0.004 | [5] 0.013

AK6 (UniProt Q9Y3D8)
inactive: [1] -0.003 | [2] 0.028 | [3] 0.008 | [4] -0.024 | [5] 0.09

ADIPOR1 (UniProt Q96A54)
inactive: [1] -0.046 | [2] -0.01 | [3] -0.033 | [4] -0.056 | [5] 0.005

ADAM9 (UniProt Q13443)
inactive: [1] -0.017 | [2] -0.023 | [3] 0.031 | [4] 0.051 | [5] -0.004

AGL (UniProt P35573)
inactive: [1] 0.022 | [2] 0.028 | [3] 0.036 | [4] 0.035 | [5] 0.086

AGO3 (UniProt Q9H9G7)
inactive: [1] -0.018 | [2] 0.031 | [3] 0.053 | [4] -0.044 | [5] -0.022

AGO2 (UniProt Q9UKV8)
inactive: [1] 0.011 | [2] -0.036 | [3] -0.002 | [4] -0.041 | [5] 0

ACOT7 isoform 7 (UniProt O00154)
inactive: [1] 0.022 | [2] -0.017 | [3] -0.009 | [4] -0.03 | [5] -0.017

AGK (UniProt Q53H12)
inactive: [1] -0.029 | [2] 0.032 | [3] -0.017 | [4] 0.032 | [5] 0.023

AGTPBP1 (UniProt Q9UPW5)
inactive: [1] 0.131 | [2] -0.13 | [3] 0.051 | [4] -0.042 | [5] 0.03

ACTA1 (UniProt P68133)
inactive: [1] -0.009 | [2] 0.006 | [3] 0.019 | [4] -0.02 | [5] -0.013

AIFM1 (UniProt O95831)
inactive: [1] -0.008 | [2] 0.013 | [3] -0.012 | [4] 0.03 | [5] 0.052

ACTR1A (UniProt P61163)
inactive: [1] 0.012 | [2] 0.02 | [3] -0.013 | [4] -0.012 | [5] -0.063

ACTR6 (UniProt Q9GZN1)
inactive: [1] 0.031 | [2] -0.047 | [3] 0.022 | [4] 0.054 | [5] -0.101

ACTR2 (UniProt P61160)
inactive: [1] 0.021 | [2] 0.004 | [3] 0.005 | [4] 0 | [5] -0.007

ADPRH (UniProt P54922)
inactive: [1] -0.045 | [2] -0.098 | [3] -0.016 | [4] -0.035 | [5] 0.021

ADGRE2 (UniProt Q9UHX3)
inactive: [1] -0.072 | [2] -0.117 | [3] -0.053 | [4] -0.056 | [5] 0.087

ACY1 (UniProt Q03154)
inactive: [1] -0.011 | [2] 0.007 | [3] -0.017 | [4] -0.003 | [5] -0.004

ACSM3 (UniProt Q53FZ2)
inactive: [1] 0.034 | [2] 0.007 | [3] -0.066 | [4] 0.002 | [5] 0.021

AK2 (UniProt P54819)
inactive: [1] 0.046 | [2] -0.013 | [3] 0.01 | [4] 0.051 | [5] -0.015

ACOX1 isoform 2 (UniProt Q15067)
inactive: [1] 0.035 | [2] -0.002 | [3] -0.026 | [4] -0.018 | [5] -0.037

ADA (UniProt P00813)
inactive: [1] 0 | [2] 0.005 | [3] -0.005 | [4] 0.099 | [5] -0.05

AKR1A1 (UniProt P14550)
inactive: [1] 0.009 | [2] 0.015 | [3] 0.03 | [4] 0.023 | [5] 0.027

ACSL1 (UniProt P33121)
inactive: [1] -0.136 | [2] 0.004 | [3] 0.014 | [4] 0.063 | [5] 0.021

ADPRHL2 (UniProt Q9NX46)
inactive: [1] 0.008 | [2] -0.011 | [3] 0.018 | [4] -0.014 | [5] 0.069
